Primary screen of a compound library

Sequences of proteins named here, by UniProt entry; tags and fusion partners are left off.
UniProt E9BF75, entry or part of it: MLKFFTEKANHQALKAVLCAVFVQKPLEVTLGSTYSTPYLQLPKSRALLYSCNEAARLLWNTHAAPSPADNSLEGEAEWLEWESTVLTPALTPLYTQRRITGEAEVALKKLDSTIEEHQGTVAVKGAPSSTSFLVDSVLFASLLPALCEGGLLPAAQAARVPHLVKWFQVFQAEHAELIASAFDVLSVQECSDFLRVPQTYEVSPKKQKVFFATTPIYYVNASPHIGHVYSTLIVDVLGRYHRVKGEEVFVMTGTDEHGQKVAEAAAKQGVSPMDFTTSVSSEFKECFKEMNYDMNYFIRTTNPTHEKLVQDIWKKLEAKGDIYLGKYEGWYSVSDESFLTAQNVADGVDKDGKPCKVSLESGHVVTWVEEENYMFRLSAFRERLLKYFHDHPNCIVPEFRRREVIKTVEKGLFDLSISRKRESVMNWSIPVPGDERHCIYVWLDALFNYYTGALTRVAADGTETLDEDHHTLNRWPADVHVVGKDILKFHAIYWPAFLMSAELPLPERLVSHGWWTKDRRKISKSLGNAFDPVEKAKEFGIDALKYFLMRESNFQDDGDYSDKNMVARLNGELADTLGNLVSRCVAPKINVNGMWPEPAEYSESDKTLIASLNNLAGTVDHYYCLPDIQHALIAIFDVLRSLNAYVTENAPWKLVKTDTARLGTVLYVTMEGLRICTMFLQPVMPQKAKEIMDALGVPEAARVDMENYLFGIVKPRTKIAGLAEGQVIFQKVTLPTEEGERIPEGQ

Data taken from ChEMBL document CHEMBL3988442, “University of Dundee, Small-Polar-MMV Screening Library” (2021).

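Primary screen of methionyl-tRNA synthetase; the read-out is not stated. Target: Methionyl-tRNA synthetase (putative), Leishmania donovani (UniProt E9BF75). The test concentration is not given. The values are filed as inhibition. Size under these conditions: about 68,000 compounds, about 24 of them at 50% or above in at least one test.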

Results are percentages, as filed.
The controls that fix the scale are not given in the record; negative values are as filed.
The compounds are a random part of those screened.

compound,Inhibition
COc1ccccc1C1=NOC(CC2(C(=O)O)CCOCC2)C1 (stereo not shown),5.145%
CNC(=O)c1cc2c(nc1NC(C)C)CCNCC2,-4.839%
Cn1cc(CC2CCN(C(=O)NCc3csc(C4CC4)n3)C2)cn1 (stereo not shown),6.843%
Cc1ccccc1C(=O)N1C[C@@H]2COC[C@]2(COCc2cccnc2)C1,4.255%
Cn1nc2c(cc1=O)CN(CC(=O)Nc1cc(C(C)(C)C)no1)CC2,8.614%
CCOC(C)c1noc(CN(C)C(=O)C2C(C)(C)C2(C)C)n1 (stereo not shown),8.505%
CCS(=O)(=O)NC1CCCN(c2cc(C)ccc2F)C1=O (stereo not shown),8.791%
COc1ccc(CN2CCSCC2)c(OC)c1,9.355%
Cc1noc(C2CCC3(CCN(C(=O)C4CCOCC4)CC3)O2)n1 (stereo not shown),12.18%
CN1CCN(Cc2cscn2)CC(C(=O)N(C)C)C1 (stereo not shown),7.317%
CCN(CCNC(=O)c1ccccc1Br)C1CC1,12.5%
COc1cccc(C2C3=C(COC3=O)Nc3[nH]nc(C)c32)c1OC (stereo not shown),6.494%
Cc1ncc(CN(C)C2CCCN(Cc3noc(C4CC4)n3)C2)s1 (stereo not shown),12.24%
CCn1c(C2CCCN(Cc3cc(OC)cc(OC)c3)C2)nn(C)c1=O (stereo not shown),2.847%
O=C(O)c1cc(NS(=O)(=O)c2ccc(Cl)s2)ccc1N1CCOCC1,9.934%
CCOc1cccc(C(=O)NCCC(=O)Nc2ccncc2)c1,15.49%
O=C(c1cncc(N2CCC3(CC2)NCCNC3=O)n1)N1CCCCC1,19.48%
CCOC1COC2(CCN(S(=O)(=O)c3ccc(F)cc3)CC2)C1 (stereo not shown),12.89%
Cn1cc(NC(=O)N2CCC(CN3CCCC3)CC2)ccc1=O,9.202%
CC(NC(=O)CSCC#N)c1cccc(NC(=O)c2ccccc2)c1 (stereo not shown),13.39%
N#CCCN(CC1CCCO1)C(=O)c1ccc(C#N)cc1 (stereo not shown),4.722%
CNc1ncccc1C(=O)N1CCN(Cc2ccc(C)cc2)C(=O)C1C (stereo not shown),7.614%
Cc1nn(C)c(N2CCOCC2)c1CNCc1ccc(N(C)C)nc1,9.945%
Cc1c(Br)cccc1C(=O)NCCC1CCCNC1 (stereo not shown),-2.989%
CSC(C)C(=O)NCCC(=O)N1CCN(c2ccccn2)CC1 (stereo not shown),15.77%
CCn1c(Cn2cncn2)nnc1C1CCN(Cc2ccc(C)o2)CC1,11.11%
CN(C)[C@@H]1CN(C(=O)Cc2cccc(F)c2)[C@@H]2CCCO[C@H]12,2.597%
Cc1cnn(CC2CCCCN2C(=O)c2ccc(C#N)c(C)n2)c1 (stereo not shown),8.711%
CCOC(C)C(=O)N(C)C1CCN(c2ccc(OC)cc2)CC1 (stereo not shown),19.23%
COCCN1CCN(CC(O)c2ccc(C(F)(F)F)cc2)CC1 (stereo not shown),14.63%
Cn1ncc2c1CCCC2NCc1cccc(F)c1 (stereo not shown),11.96%
O=C(O)c1cc(NS(=O)(=O)c2ccc(Br)s2)c(F)cc1F,13.65%
c1cncc(CN2CCn3c(Cn4cncn4)cnc3C2)c1,5.97%
Cc1noc(C)c1C(=O)NCC(O)c1ccc(F)cc1F (stereo not shown),1.587%
CN(C)S(=O)(=O)N1CCC(c2c(C(N)=O)sc3ccccc23)C1 (stereo not shown),6.667%
c1ccc(CN2CCCC(Cn3cncn3)C2)nc1 (stereo not shown),8.896%
O=C(CCCNCc1ccc(Cl)c2cccnc12)NC1CC1,10.26%
COc1ncc(CN2CC[C@@](C)(O)[C@H](Oc3cccc(F)c3)C2)cn1,17.13%
COCc1cncc2c1CCN(C(=O)c1ccoc1C)C2,24.44%
CC(Cn1ccnc1)NC(=O)N(C)Cc1ccc2c(c1)OCO2 (stereo not shown),4.819%
CCS(=O)(=O)CCN1CCC(N(C)Cc2ncc(C)o2)C1 (stereo not shown),-12.16%
c1cnc(-c2nc(CN3CCCN(Cc4cccs4)CC3)cs2)nc1,11.11%
COCCN1CC2(CCN(C(=O)c3ccno3)CC2)c2ccccc21,1.681%
CN(Cc1ccccn1)C1CC2(CCN(Cc3ccccn3)CC2)C1,10.95%
COCCN1C(=O)CCC12CCCN(Cc1nccs1)CC2 (stereo not shown),8.242%
Cc1nc(CO[C@@H]2CN(Cc3ccc(F)cc3)[C@@H]3COC[C@@H]32)cs1,18.75%
CN(CC(=O)NC(Cc1ccsc1)c1cccnc1)Cc1ccccn1 (stereo not shown),7.862%
Cc1nc(C)c(COc2ccc(S(=O)(=O)N(C)C)cc2)s1,16.72%
Cc1cnn(CCNC(C)c2nnc(-c3cccc(Cl)c3)o2)c1 (stereo not shown),11.5%
CCN(C(=O)c1cnc(-c2ccc3c(c2)OCO3)s1)C1CC1,9.181%
COc1ccc2c(c1)C(C(=O)N(C)CCn1ccnc1C)CC(=O)N2 (stereo not shown),3.194%
CC(C)(C)CNC(=O)c1ccc(C(=O)O)cn1,13.96%
Cc1ccccc1OCCCC(=O)N(C)CCC#N,6.266%
Cc1nc(C)c(CC(=O)NCc2ccc(F)cc2)s1,17.69%
CNC(=O)c1n[nH]c2c1C(c1cccc3c1OC(C)(C)C3)CC(=O)N2 (stereo not shown),10%
COc1ccc(OC)c(C2C3=C(COC3=O)Nc3[nH]nc(C)c32)c1 (stereo not shown),2.075%
COc1c(C(=O)NCc2cnn(C)c2C)nnn1Cc1ccccc1,1.759%
Cc1nc(C(=O)N2CCCC2c2cncc(CN3CCCC3)n2)co1 (stereo not shown),7.302%
CNC(=O)[C@@H]1C[C@@H](NC(=O)c2cn(C)nc2C)CN1Cc1sccc1C,8.059%
CCCN(Cc1cccnc1)C(=O)C1CCCN(C)C1 (stereo not shown),-0.3484%
O=S(=O)(c1ccc(F)cc1)N1CCCCC1c1cc[nH]n1 (stereo not shown),7.765%
COc1cccc(-c2cc(NCc3cscn3)n(C)n2)c1,10.64%

Once more, the final 6:

{"compound": "COc1c(C(=O)NCc2cnn(C)c2C)nnn1Cc1ccccc1", "Inhibition": 1.759}
{"compound": "Cc1nc(C(=O)N2CCCC2c2cncc(CN3CCCC3)n2)co1", "stereo": "stereo not shown", "Inhibition": 7.302}
{"compound": "CNC(=O)[C@@H]1C[C@@H](NC(=O)c2cn(C)nc2C)CN1Cc1sccc1C", "Inhibition": 8.059}
{"compound": "CCCN(Cc1cccnc1)C(=O)C1CCCN(C)C1", "stereo": "stereo not shown", "Inhibition": -0.3484}
{"compound": "O=S(=O)(c1ccc(F)cc1)N1CCCCC1c1cc[nH]n1", "stereo": "stereo not shown", "Inhibition": 7.765}
{"compound": "COc1cccc(-c2cc(NCc3cscn3)n(C)n2)c1", "Inhibition": 10.64}